Experiment: Phantom studies: relative X-ray attenuation in well-plates under a 17-cm water column
Conditions: 110 kV, equimolar concentrations

O=C([O-])CN1CCN(CC(=O)[O-])CCN(CC(=O)NCCNC(=O)c2c(I)c(C(=O)NCCNC(=O)CN3CCN(CC(=O)[O-])CCN(CC(=O)[O-])CCN(CC(=O)[O-])CC3)c(I)c(C(=O)NCCNC(=O)CN3CCN(CC(=O)[O-])CCN(CC(=O)[O-])CCN(CC(=O)[O-])CC3)c2I)CCN(CC(=O)[O-])CC1.[Gd+3].[Gd+3].[Gd+3] [Example 3F, 2,4,6-Triiodotrimesic acid-N,N,N-tris-(3-aza-4-oxopentane-1,5-diyl-{10-[1,4,7-tris-(carboxylatomethyl)-1,4,7,10-tetrazacyclododecanyl, Gdcomplex]})amide]
x-ray absorption relative to gadobutrol: 3.77 × | x-ray absorption relative to iopromide: 3.08 ×
